The target of experiment [1] is calcitonin receptor-like receptor (human (endogenous in HDLEC)) (UniProt Q16602). Put plainly: affinity purification with mass spectrometry; IP of endogenous CLR from precleared HDLEC RIPA lysate (600 ug protein) with rabbit anti-human CLR immune serum LN-1436, protein G magnetic beads, 4 C, washes in 50 mM Tris pH 7.4, 150 mM NaCl without detergent; on-bead digestion, label-free quantitative nano LC-MS/MS; control IP with preimmune serum of the same rabbit; four independent experiments.

Protein sequences, listed by entry. Tags and fused reporters are not part of them. Residues count along the entry.
UniProt Q16602, residues 23-461: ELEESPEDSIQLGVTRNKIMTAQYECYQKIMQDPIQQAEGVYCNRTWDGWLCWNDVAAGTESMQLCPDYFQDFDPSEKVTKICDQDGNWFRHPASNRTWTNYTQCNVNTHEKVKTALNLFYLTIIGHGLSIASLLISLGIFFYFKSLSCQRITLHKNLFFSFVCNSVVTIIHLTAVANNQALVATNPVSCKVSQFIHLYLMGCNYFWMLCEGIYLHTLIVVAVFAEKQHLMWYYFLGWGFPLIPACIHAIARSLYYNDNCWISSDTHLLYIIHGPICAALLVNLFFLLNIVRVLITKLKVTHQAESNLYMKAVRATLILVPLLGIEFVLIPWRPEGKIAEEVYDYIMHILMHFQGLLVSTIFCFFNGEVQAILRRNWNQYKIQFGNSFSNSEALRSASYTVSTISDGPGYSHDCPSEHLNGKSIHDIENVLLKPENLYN
UniProt O95816: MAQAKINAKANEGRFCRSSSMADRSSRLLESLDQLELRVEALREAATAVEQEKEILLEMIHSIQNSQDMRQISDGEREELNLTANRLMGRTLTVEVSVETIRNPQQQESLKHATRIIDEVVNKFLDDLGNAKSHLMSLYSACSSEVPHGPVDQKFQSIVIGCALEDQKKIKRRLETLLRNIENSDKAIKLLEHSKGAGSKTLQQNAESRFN
UniProt Q13557: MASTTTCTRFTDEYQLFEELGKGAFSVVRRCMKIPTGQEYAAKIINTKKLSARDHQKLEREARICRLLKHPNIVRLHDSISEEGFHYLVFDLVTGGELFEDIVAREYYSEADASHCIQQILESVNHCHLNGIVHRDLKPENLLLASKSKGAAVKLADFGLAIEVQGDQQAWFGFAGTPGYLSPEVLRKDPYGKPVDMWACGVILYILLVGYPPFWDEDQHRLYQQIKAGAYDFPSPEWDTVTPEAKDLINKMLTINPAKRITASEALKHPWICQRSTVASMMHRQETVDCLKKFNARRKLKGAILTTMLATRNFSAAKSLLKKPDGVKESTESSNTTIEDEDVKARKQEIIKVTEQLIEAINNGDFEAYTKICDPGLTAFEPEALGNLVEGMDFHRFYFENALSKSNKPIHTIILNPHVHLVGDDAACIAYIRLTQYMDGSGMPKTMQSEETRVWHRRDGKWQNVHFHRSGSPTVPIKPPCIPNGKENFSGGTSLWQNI
UniProt Q13555: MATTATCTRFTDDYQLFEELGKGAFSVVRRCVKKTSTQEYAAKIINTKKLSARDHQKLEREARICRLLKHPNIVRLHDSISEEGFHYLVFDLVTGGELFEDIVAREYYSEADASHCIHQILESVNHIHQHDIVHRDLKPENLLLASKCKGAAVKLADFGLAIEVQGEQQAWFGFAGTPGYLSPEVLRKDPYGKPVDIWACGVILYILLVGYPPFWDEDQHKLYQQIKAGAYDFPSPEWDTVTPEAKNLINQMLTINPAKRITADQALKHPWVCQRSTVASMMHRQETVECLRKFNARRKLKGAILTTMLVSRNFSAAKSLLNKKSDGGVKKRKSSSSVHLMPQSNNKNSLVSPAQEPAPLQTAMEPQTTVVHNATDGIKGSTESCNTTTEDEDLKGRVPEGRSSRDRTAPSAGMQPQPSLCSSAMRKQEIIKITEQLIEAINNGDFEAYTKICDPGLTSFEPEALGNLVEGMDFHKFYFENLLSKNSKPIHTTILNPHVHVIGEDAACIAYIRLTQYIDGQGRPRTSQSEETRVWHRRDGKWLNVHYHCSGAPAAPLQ
UniProt Q5VT25: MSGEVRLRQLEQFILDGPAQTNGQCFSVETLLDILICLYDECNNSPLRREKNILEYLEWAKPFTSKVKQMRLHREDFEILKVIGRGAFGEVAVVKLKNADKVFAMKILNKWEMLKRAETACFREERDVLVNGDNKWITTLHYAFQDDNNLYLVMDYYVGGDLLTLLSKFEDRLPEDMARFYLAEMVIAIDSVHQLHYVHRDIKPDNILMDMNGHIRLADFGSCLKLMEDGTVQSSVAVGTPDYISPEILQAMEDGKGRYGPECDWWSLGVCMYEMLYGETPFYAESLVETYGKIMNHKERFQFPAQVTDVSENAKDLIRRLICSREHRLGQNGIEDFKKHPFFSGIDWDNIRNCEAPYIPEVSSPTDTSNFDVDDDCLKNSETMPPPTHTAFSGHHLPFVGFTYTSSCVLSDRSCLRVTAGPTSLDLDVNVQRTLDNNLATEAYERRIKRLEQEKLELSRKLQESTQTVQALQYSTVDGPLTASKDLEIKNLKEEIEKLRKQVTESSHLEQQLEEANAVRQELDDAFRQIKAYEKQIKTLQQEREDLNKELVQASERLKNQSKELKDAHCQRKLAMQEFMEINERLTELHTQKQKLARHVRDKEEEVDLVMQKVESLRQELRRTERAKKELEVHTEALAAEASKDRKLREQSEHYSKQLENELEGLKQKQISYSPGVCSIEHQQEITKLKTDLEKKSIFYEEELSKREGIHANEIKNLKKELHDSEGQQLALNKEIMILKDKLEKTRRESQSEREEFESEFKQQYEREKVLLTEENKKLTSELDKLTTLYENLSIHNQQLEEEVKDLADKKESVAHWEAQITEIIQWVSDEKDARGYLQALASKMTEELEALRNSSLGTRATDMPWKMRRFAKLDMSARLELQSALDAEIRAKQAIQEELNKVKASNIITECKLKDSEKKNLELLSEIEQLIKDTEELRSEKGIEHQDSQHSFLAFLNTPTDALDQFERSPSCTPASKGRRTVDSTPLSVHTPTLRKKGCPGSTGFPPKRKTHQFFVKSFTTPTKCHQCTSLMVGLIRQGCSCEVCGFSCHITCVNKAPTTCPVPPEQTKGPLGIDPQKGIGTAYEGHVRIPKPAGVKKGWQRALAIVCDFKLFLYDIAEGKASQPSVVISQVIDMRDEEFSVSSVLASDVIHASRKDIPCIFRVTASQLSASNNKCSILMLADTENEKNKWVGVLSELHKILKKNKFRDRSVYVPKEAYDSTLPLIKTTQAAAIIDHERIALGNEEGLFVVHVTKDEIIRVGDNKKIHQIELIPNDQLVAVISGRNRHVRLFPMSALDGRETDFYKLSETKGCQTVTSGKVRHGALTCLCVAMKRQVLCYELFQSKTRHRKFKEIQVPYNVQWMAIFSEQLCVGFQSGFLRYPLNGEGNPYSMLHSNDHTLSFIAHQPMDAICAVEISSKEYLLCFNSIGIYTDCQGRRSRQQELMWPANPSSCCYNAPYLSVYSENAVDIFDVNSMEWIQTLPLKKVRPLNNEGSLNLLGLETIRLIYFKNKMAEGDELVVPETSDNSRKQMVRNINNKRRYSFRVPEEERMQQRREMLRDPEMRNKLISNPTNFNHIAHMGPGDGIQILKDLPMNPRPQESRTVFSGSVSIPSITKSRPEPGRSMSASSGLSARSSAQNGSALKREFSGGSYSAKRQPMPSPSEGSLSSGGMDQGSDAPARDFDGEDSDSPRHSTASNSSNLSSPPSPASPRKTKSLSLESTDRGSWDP
UniProt Q9Y5S2: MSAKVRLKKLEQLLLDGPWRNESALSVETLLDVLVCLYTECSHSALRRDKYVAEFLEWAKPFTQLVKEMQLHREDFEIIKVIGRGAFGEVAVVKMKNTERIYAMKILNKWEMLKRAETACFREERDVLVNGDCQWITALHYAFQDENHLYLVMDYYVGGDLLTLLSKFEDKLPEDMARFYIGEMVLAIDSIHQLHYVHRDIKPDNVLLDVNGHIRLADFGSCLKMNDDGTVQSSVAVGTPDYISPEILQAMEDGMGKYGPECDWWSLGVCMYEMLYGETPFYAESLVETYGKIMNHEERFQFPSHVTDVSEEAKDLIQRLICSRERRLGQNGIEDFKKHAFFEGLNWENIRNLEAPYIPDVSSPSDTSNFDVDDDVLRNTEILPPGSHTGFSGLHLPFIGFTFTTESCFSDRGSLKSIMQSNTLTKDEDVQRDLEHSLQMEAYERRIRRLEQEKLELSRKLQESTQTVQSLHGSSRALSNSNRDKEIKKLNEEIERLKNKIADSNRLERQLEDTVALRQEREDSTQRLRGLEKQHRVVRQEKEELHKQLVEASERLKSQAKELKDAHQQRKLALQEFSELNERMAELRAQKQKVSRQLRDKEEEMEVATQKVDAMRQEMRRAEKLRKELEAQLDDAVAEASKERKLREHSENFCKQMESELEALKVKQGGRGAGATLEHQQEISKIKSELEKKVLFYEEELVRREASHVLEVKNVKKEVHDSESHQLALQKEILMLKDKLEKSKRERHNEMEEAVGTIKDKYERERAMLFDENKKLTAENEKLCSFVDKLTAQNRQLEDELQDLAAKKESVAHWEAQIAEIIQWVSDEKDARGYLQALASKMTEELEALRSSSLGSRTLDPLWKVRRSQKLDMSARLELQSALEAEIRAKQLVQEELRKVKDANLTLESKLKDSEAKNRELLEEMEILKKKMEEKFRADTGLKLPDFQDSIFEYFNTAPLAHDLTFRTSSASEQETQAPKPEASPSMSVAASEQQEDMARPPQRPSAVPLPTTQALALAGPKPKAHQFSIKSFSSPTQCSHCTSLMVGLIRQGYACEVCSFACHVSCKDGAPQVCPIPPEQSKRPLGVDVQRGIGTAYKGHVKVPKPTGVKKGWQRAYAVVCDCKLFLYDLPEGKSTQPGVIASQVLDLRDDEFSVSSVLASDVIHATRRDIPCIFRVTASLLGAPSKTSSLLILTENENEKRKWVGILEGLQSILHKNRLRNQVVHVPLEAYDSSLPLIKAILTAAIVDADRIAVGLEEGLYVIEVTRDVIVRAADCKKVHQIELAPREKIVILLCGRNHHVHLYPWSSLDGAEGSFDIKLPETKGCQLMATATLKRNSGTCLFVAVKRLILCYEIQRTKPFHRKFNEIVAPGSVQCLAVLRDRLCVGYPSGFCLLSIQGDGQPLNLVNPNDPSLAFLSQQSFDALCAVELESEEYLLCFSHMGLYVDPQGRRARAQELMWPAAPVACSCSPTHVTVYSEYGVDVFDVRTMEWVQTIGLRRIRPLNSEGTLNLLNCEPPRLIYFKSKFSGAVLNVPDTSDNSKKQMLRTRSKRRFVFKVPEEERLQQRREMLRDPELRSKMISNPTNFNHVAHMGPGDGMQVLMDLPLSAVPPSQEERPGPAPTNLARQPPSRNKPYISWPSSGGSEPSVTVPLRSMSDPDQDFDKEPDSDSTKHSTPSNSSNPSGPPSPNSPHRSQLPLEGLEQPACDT

The target is the same in experiment [2]. The description is as above. This is another data set of the same source.

Read-outs that look alike come from different tables or passages of the source. No constants are given. Whether binding was seen depends on the method and setting. Binding seen in cells or lysates may run through a third protein. Here binding means that the protein was enriched with, or labelled near, the bait; the list need not be complete.

With “BAG cochaperone 2 (from UniProt O95816 1-211)”, the binding result in experiment [1] is “binds”.

Take “Protocadherin Fat 1 (from UniProt Q14517 22-4588)”: in experiment [1], the binding entry is “binds”.

Turning to “calcium/calmodulin-dependent protein kinase 2 delta (from UniProt Q13557 1-499) (enzyme)”, in experiment [1], the binding result is on record as “binds”.

Turning to “calcium/calmodulin-dependent protein kinase 2 gamma (from UniProt Q13555 1-558) (enzyme)”, in experiment [1], the binding result is listed as “binds”.

For “cell division control protein 42 (CDC42) binding protein kinase alpha (from UniProt Q5VT25 1-1732) (enzyme)”, the binding entry in experiment [1] is given as “binds”.

In the case of “cell division control protein 42 (CDC42) binding protein kinase beta (from UniProt Q9Y5S2 1-1711) (enzyme)”, in experiment [1], the binding entry is on record as “binds”.

Regarding “valosin-containing protein (from UniProt P55072 1-806)”, the binding entry in experiment [1] is “binds”.

B1: ADAMTS like 2 (protein, UniProt Q86TH1 23-951)
chain: DTVSTGSTDNSPTSNSLEGGTDATAFWWGEWTKWTACSRSCGGGVTSQERHCLQQRRKSVPGPGNRTCTGTSKRYQLCRVQECPPDGRSFREEQCVSFNSHVYNGRTHQWKPLYPDDYVHISSKPCDLHCTTVDGQRQLMVPARDGTSCKLTDLRGVCVSGKCEPIGCDGVLFSTHTLDKCGICQGDGSSCTHVTGNYRKGNAHLGYSLVTHIPAGARDIQIVERKKSADVLALADEAGYYFFNGNYKVDSPKNFNIAGTVVKYRRPMDVYETGIEYIVAQGPTNQGLNVMVWNQNGKSPSITFEYTLLQPPHESRPQPIYYGFSESAESQGLDGAGLMGFVPHNGSLYGQASSERLGLDNRLFGHPGLDMELGPSQGQETNEVCEQAGGGACEGPPRGKGFRDRNVTGTPLTGDKDDEEVDTHFASQEFFSANAISDQLLGAGSDLKDFTLNETVNSIFAQGAPRSSLAESFFVDYEENEGAGPYLLNGSYLELSSDRVANSSSEAPFPNVSTSLLTSAGNRTHKARTRPKARKQGVSPADMYRWKLSSHEPCSATCTTGVMSAYAMCVRYDGVEVDDSYCDALTRPEPVHEFCAGRECQPRWETSSWSECSRTCGEGYQFRVVRCWKMLSPGFDSSVYSDLCEAAEAVRPEERKTCRNPACGPQWEMSEWSECTAKCGERSVVTRDIRCSEDEKLCDPNTRPVGEKNCTGPPCDRQWTVSDWGPCSGSCGQGRTIRHVYCKTSDGRVVPESQCQMETKPLAIHPCGDKNCPAHWLAQDWERCNTTCGRGVKKRLVLCMELANGKPQTRSGPECGLAKKPPEESTCFERPCFKWYTSPWSECTKTCGVGVRMRDVKCYQGTDIVRGCDPLVKPVGRQACDLQPCPTEPPDDSCQDQPGTNCALAIKVNLCGHWYYSKACCRSCRPPHS
On to B1, for which the binding result in experiment [2] is “binds”.

B2: elongation of very long-chain fatty acids protein 1 (protein, UniProt Q9BW60 1-279)
chain: MEAVVNLYQEVMKHADPRIQGYPLMGSPLLMTSILLTYVYFVLSLGPRIMANRKPFQLRGFMIVYNFSLVALSLYIVYEFLMSGWLSTYTWRCDPVDYSNSPEALRMVRVAWLFLFSKFIELMDTVIFILRKKDGQVTFLHVFHHSVLPWSWWWGVKIAPGGMGSFHAMINSSVHVIMYLYYGLSAFGPVAQPYLWWKKHMTAIQLIQFVLVSLHISQYYFMSSCNYQYPVIIHLIWMYGTIFFMLFSNFWYHSYTKGKRLPRALQQNGAPGIAKVKAN
For B2, in experiment [2], the binding entry is listed as “binds”.
